{"source": "patent US9138466B2", "about": "“Factor H for transplantation” (Baxter International Inc., priority 2013, dated 2015)", "key": {"[1]": {"test_system": "collagen antibody-induced arthritis in Balb C mice", "assay": "Mouse CAIA, hind paw volume / footpad swelling (Example 4)", "assay_type": "in vivo", "conditions": "Dunnett's Multiple Comparison Test"}, "[2]": {"test_system": "collagen antibody-induced arthritis in Balb C mice", "assay": "Mouse CAIA, histopathology of hind limbs (ankle, H & E) (Example 4)", "assay_type": "in vivo"}, "[3]": {"test_system": "collagen antibody-induced arthritis in Balb C mice", "assay": "Mouse CAIA, clinical score (Example 4)", "assay_type": "in vivo", "conditions": "Dunn's Multiple Comparison Test, G1 vehicle vs treatment"}, "[4]": {"test_system": "C3H kidney allografts in pre-sensitized B6 recipients", "assay": "Renal graft function (Cr, BUN, Hct) and follow-up to POD100 in pre-sensitized kidney transplant model (Example 2)", "assay_type": "in vivo, mouse", "conditions": "POD7, compared to controls, FIG. 4"}, "[5]": {"conditions": "Dunn's Multiple Comparison Test, G1 vehicle vs treatment"}}, "note": "At least one compound was matched to its structure with a doubt left."}
{"smiles": "C[C@@H]1C[C@H]2[C@@H]3CCC4=CC(=O)C=C[C@]4(C)[C@@]3(F)[C@@H](O)C[C@]2(C)[C@@]1(O)C(=O)CO", "note": "[Dexamethasone]", "values": [{"measurement": "Total Disease, Significant? P < 0.05?", "setting": "[1]; G1 vehicle vs treatment", "value": "Yes"}, {"measurement": "Hind Limb Volume, Significant? P < 0.05?", "setting": "[1]; vehicle vs treatment", "value": "Yes"}, {"measurement": "Cartilage, Significant? P < 0.05?", "setting": "[2]; [5]", "value": "No"}, {"measurement": "Composite, Significant? P < 0.05?", "setting": "[2]; [5]", "value": "Yes"}, {"measurement": "Exostosis, Significant? P < 0.05?", "setting": "[2]; [5]", "value": "Yes"}, {"measurement": "Inflammation, Significant? P < 0.05?", "setting": "[2]; [5]", "value": "Yes"}, {"measurement": "Pannus, Significant? P < 0.05?", "setting": "[2]; [5]", "value": "No"}, {"measurement": "histopathology result", "setting": "[2]; mouse, in vivo", "value": "consistently produced an improved histopathology result"}, {"measurement": "Clinical Score, Significant? P < 0.05?", "setting": "[3]", "value": "Yes"}]}
{"smiles": "CO[C@H]1C[C@@H]2CC[C@@H](C)[C@@](O)(O2)C(=O)C(=O)N2CCCC[C@H]2C(=O)O[C@H]([C@H](C)C[C@@H]2CC[C@@H](O)[C@H](OC)C2)CC(=O)[C@H](C)/C=C(\\C)[C@@H](O)[C@@H](OC)C(=O)[C@H](C)C[C@H](C)/C=C/C=C/C=C/1C", "note": "[RAPA Alone, Rapamycin]", "values": [{"measurement": "early renal function (Cr, BUN, Hct)", "setting": "[4]", "value": "demonstrated protection of early renal function (POD7)"}]}
